Laboratory results from PMC5680368.
No constants are given. Whether binding was seen depends on the method and setting. In cells and extracts the contact can be indirect. These calls come from enrichment with a bait or labelling near it, and not all partners need be listed. Tags and fused reporters may be left off the sequences shown.

T1: human OSTF1 tagged at the N-terminus with a V5-epitope tag (human) (UniProt Q92882)
T1 sequence: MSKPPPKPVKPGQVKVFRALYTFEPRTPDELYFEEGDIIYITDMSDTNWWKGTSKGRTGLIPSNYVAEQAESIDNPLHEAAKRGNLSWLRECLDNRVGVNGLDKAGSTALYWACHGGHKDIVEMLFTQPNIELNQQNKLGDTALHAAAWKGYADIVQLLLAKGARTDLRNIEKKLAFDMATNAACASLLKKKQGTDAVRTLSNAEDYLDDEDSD

B1: Myosin 1E (protein, UniProt Q12965 1-1108)
chain: MGSKGVYQYHWQSHNVKHSGVDDMVLLSKITENSIVENLKKRYMDDYIFTYIGSVLISVNPFKQMPYFGEKEIEMYQGAAQYENPPHIYALADNMYRNMIIDRENQCVIISGESGAGKTVAAKYIMSYISRVSGGGTKVQHVKDIILQSNPLLEAFGNAKTVRNNNSSRFGKYFEIQFSPGGEPDGGKISNFLLEKSRVVMRNPGERSFHIFYQLIEGASAEQKHSLGITSMDYYYYLSLSGSYKVDDIDDRREFQETLHAMNVIGIFAEEQTLVLQIVAGILHLGNISFKEVGNYAAVESEEFLAFPAYLLGINQDRLKEKLTSRQMDSKWGGKSESIHVTLNVEQACYTRDALAKALHARVFDFLVDSINKAMEKDHEEYNIGVLDIYGFEIFQKNGFEQFCINFVNEKLQQIFIELTLKAEQEEYVQEGIRWTPIEYFNNKIVCDLIENKVNPPGIMSILDDVCATMHAVGEGADQTLLQKLQMQIGSHEHFNSWNQGFIIHHYAGKVSYDMDGFCERNRDVLFMDLIELMQSSELPFIKSLFPENLQADKKGRPTTAGSKIKKQANDLVSTLMKCTPHYIRCIKPNETKKPRDWEESRVKHQVEYLGLKENIRVRRAGYAYRRIFQKFLQRYAILTKATWPSWQGEEKQGVLHLLQSVNMDSDQFQLGRSKVFIKAPESLFLLEEMRERKYDGYARVIQKSWRKFVARKKYVQMREEASDLLLNKKERRRNSINRNFIGDYIGMEEHPELQQFVGKREKIDFADTVTKYDRRFKGVKRDLLLTPKCLYLIGREKVKQGPDKGLVKEVLKRKIEIERILSVSLSTMQDDIFILHEQEYDSLLESVFKTEFLSLLAKRYEEKTQKQLPLKFSNTLELKLKKENWGPWSAGGSRQVQFHQGFGDLAVLKPSNKVLQVSIGPGLPKNSRPTRRNTTQNTGYSSGTQNANYPVRAAPPPPGYHQNGVIRNQYVPYPHAPGSQRSNQKSLYTSMARPPLPRQQSTSSDRVSQTPESLDFLKVPDQGAAGVRRQTTSRPPPAGGRPKPQPKPKPQVPQCKALYAYDAQDTDELSFNANDIIDIIKEDPSGWWTGRLRGKQGLFPNNYVTKI
B2: UPF3B, regulator of nonsense mediated mRNA decay (protein, UniProt Q9BZI7 1-483)
chain: MKEEKEHRPKEKRVTLLTPAGATGSGGGTSGDSSKGEDKQDRNKEKKEALSKVVIRRLPPTLTKEQLQEHLQPMPEHDYFEFFSNDTSLYPHMYARAYINFKNQEDIILFRDRFDGYVFLDNKGQEYPAIVEFAPFQKAAKKKTKKRDTKVGTIDDDPEYRKFLESYATDNEKMTSTPETLLEEIEAKNRELIAKKTTPLLSFLKNKQRMREEKREERRRREIERKRQREEERRKWKEEEKRKRKDIEKLKKIDRIPERDKLKDEPKIKVHRFLLQAVNQKNLLKKPEKGDEKELDKREKAKKLDKENLSDERASGQSCTLPKRSDSELKDEKPKRPEDESGRDYREREREYERDQERILRERERLKRQEEERRRQKERYEKEKTFKRKEEEMKKEKDTLRDKGKKAESTESIGSSEKTEKKEEVVKRDRIRNKDRPAMQLYQPGARSRNRLCPPDDSTKSGDSAAERKQESGISHRKEGGEE
B3: PAK1 interacting protein 1 (protein, UniProt Q9NWT1 1-392)
chain: MELVAGCYEQVLFGFAVHPEPEACGDHEQWTLVADFTHHAHTASLSAVAVNSRFVVTGSKDETIHIYDMKKKIEHGALVHHSGTITCLKFYGNRHLISGAEDGLICIWDAKKWECLKSIKAHKGQVTFLSIHPSGKLALSVGTDKTLRTWNLVEGRSAFIKNIKQNAHIVEWSPRGEQYVVIIQNKIDIYQLDTASISGTITNEKRISSVKFLSESVLAVAGDEEVIRFFDCDSLVCLCEFKAHENRVKDMFSFEIPEHHVIVSASSDGFIKMWKLKQDKKVPPSLLCEINTNARLTCLGVWLDKVADMKESLPPAAEPSPVSKEQSKIGKKEPGDTVHKEEKRSKPNTKKRGLTGDSKKATKESGLISTKKRKMVEMLEKKRKKKKIKTMQ
B4: RNA binding protein with serine rich domain 1 (protein, UniProt Q15287 1-305)
chain: MDLSGVKKKSLLGVKENNKKSSTRAPSPTKRKDRSDEKSKDRSKDKGATKESSEKDRGRDKTRKRRSASSGSSSTRSRSSSTSSSGSSTSTGSSSGSSSSSASSRSGSSSTSRSSSSSSSSGSPSPSRRRHDNRRRSRSKSKPPKRDEKERKRRSPSPKPTKVHIGRLTRNVTKDHIMEIFSTYGKIKMIDMPVERMHPHLSKGYAYVEFENPDEAEKALKHMDGGQIDGQEITATAVLAPWPRPPPRRFSPPRRMLPPPPMWRRSPPRMRRRSRSPRRRSPVRRRSRSPGRRRHRSRSSSNSSR
B5: FTSJ3 (protein, UniProt Q8IY81 1-847)
chain: MGKKGKVGKSRRDKFYHLAKETGYRSRSAFKLIQLNRRFQFLQKARALLDLCAAPGGWLQVAAKFMPVSSLIVGVDLVPIKPLPNVVTLQQDITTERCRQALRKELKTWKVDVVLNDGAPNVGASWVHDAYSQAHLTLMALRLACDFLARGGSFITKVFRSRDYQPLLWIFQQLFRRVQATKPQASRHESAEIFVVCQGFLAPDKVDSKFFDPKFAFKEVEVQAKTVTELVTKKKPKAEGYAEGDLTLYHRTSVTDFLRAANPVDFLSKASEIMVDDEELAQHPATTEDIRVCCQDIRVLGRKELRSLLNWRTKLRRYVAKKLKEQAKALDISLSSGEEDEGDEEDSTAGTTKQPSKEEEEEEEEEQLNQTLAEMKAQEVAELKRKKKKLLREQRKQRERVELKMDLPGVSIADEGETGMFSLSTIRGHQLLEEVTQGDMSAADTFLSDLPRDDIYVSDVEDDGDDTSLDSDLDPEELAGVRGHQGLRDQKRMRLTEVQDDKEEEEEENPLLVPLEEKAVLQEEQANLWFSKGSFAGIEDDADEALEISQAQLLFENRRKGRQQQQKQQLPQTPPSCLKTEIMSPLYQDEAPKGTEASSGTEAATGLEGEEKDGISDSDSSTSSEEEESWEPLRGKKRSRGPKSDDDGFEIVPIEDPAKHRILDPEGLALGAVIASSKKAKRDLIDNSFNRYTFNEDEGELPEWFVQEEKQHRIRQLPVGKKEVEHYRKRWREINARPIKKVAEAKARKKRRMLKRLEQTRKKAEAVVNTVDISEREKVAQLRSLYKKAGLGKEKRHVTYVVAKKGVGRKVRRPAGVRGHFKVVDSRMKKDQRAQQRKEQKKKHKRK
B6: Factor interacting with PAPOLA and CPSF1 (protein, UniProt Q6UN15 1-594)
chain: MSAGEVERLVSELSGGTGGDEEEEWLYGGPWDVHVHSDLAKDLDENEVERPEEENASANPPSGIEDETAENGVPKPKVTETEDDSDSDSDDDEDDVHVTIGDIKTGAPQYGSYGTAPVNLNIKTGGRVYGTTGTKVKGVDLDAPGSINGVPLLEVDLDSFEDKPWRKPGADLSDYFNYGFNEDTWKAYCEKQKRIRMGLEVIPVTSTTNKITAEDCTMEVTPGAEIQDGRFNLFKVQQGRTGNSEKETALPSTKAEFTSPPSLFKTGLPPSRNSTSSQSQTSTASRKANSSVGKWQDRYGRAESPDLRRLPGAIDVIGQTITISRVEGRRRANENSNIQVLSERSATEVDNNFSKPPPFFPPGAPPTHLPPPPFLPPPPTVSTAPPLIPPPGFPPPPGAPPPSLIPTIESGHSSGYDSRSARAFPYGNVAFPHLPGSAPSWPSLVDTSKQWDYYARREKDRDRERDRDRERDRDRDRERERTRERERERDHSPTPSVFNSDEERYRYREYAERGYERHRASREKEERHRERRHREKEETRHKSSRSNSRRRHESEEGDSHRRHKHKKSKRSKEGKEAGSEPAPEQESTEATPAE
B7: SLU7 homolog (protein, UniProt O95391 1-586)
chain: MSATVVDAVNAAPLSGSKEMSLEEPKKMTREDWRKKKELEEQRKLGNAPAEVDEEGKDINPHIPQYISSVPWYIDPSKRPTLKHQRPQPEKQKQFSSSGEWYKRGVKENSIITKYRKGACENCGAMTHKKKDCFERPRRVGAKFTGTNIAPDEHVQPQLMFDYDGKRDRWNGYNPEEHMKIVEEYAKVDLAKRTLKAQKLQEELASGKLVEQANSPKHQWGEEEPNSQMEKDHNSEDEDEDKYADDIDMPGQNFDSKRRITVRNLRIREDIAKYLRNLDPNSAYYDPKTRAMRENPYANAGKNPDEVSYAGDNFVRYTGDTISMAQTQLFAWEAYDKGSEVHLQADPTKLELLYKSFKVKKEDFKEQQKESILEKYGGQEHLDAPPAELLLAQTEDYVEYSRHGTVIKGQERAVACSKYEEDVKIHNHTHIWGSYWKEGRWGYKCCHSFFKYSYCTGEAGKEIVNSEECIINEITGEESVKKPQTLMELHQEKLKEEKKKKKKKKKKHRKSSSDSDDEEKKHEKLKKALNAEEARLLHVKETMQIDERKRPYNSMYETREPTEEEMEAYRMKRQRPDDPMASFLGQ
B8: Adaptor-related protein complex 3, delta-1 subuint (protein, UniProt O14617 1-1153)
chain: MALKMVKGSIDRMFDKNLQDLVRGIRNHKEDEAKYISQCIDEIKQELKQDNIAVKANAVCKLTYLQMLGYDISWAAFNIIEVMSASKFTFKRIGYLAASQSFHEGTDVIMLTTNQIRKDLSSPSQYDTGVALTGLSCFVTPDLARDLANDIMTLMSHTKPYIRKKAVLIMYKVFLKYPESLRPAFPRLKEKLEDPDPGVQSAAVNVICELARRNPKNYLSLAPLFFKLMTSSTNNWVLIKIIKLFGALTPLEPRLGKKLIEPLTNLIHSTSAMSLLYECVNTVIAVLISLSSGMPNHSASIQLCVQKLRILIEDSDQNLKYLGLLAMSKILKTHPKSVQSHKDLILQCLDDKDESIRLRALDLLYGMVSKKNLMEIVKKLMTHVDKAEGTTYRDELLTKIIDICSQSNYQYITNFEWYISILVELTRLEGTRHGHLIAAQMLDVAIRVKAIRKFAVSQMSALLDSAHLLASSTQRNGICEVLYAAAWICGEFSEHLQEPHHTLEAMLRPRVTTLPGHIQAVYVQNVVKLYASILQQKEQAGEAEGAQAVTQLMVDRLPQFVQSADLEVQERASCILQLVKHIQKLQAKDVPVAEEVSALFAGELNPVAPKAQKKVPVPEGLDLDAWINEPLSDSESEDERPRAVFHEEEQRRPKHRPSEADEEELARRREARKQEQANNPFYIKSSPSPQKRYQDTPGVEHIPVVQIDLSVPLKVPGLPMSDQYVKLEEERRHRQKLEKDKRRKKRKEKEKKGKRRHSSLPTESDEDIAPAQQVDIVTEEMPENALPSDEDDKDPNDPYRALDIDLDKPLADSEKLPIQKHRNTETSKSPEKDVPMVEKKSKKPKKKEKKHKEKERDKEKKKEKEKKKSPKPKKKKHRKEKEERTKGKKKSKKQPPGSEEAAGEPVQNGAPEEEQLPPESSYSLLAENSYVKMTCDIRGSLQEDSQVTVAIVLENRSSSILKGMELSVLDSLNARMARPQGSSVHDGVPVPFQLPPGVSNEAQYVFTIQSIVMAQKLKGTLSFIAKNDEGATHEKLDFRLHFSCSSYLITTPCYSDAFAKLLESGDLSMSSIKVDGIRMSFQNLLAKICFHHHFSVVERVDSCASMYSRSIQGHHVCLLVKKGENSVSVDGKCSDSTLLSNLLEEMKATLAKC

Target: T1, human OSTF1 tagged at the N-terminus with a V5-epitope tag (human)
Assay: affinity purification with mass spectrometry; HEK293 cells transiently transfected in triplicate with empty vector or V5-OSTF1; lysed after 48 h in 50 mM Tris pH 7.5, 1% Triton-X100, 150 mM NaCl; automated IP with anti-V5 magnetic agarose; co-immunoprecipitating proteins identified by LC-MS/MS

Binder | binding
B1 | binds
B2 | binds
B3 | binds
B4 | binds
B5 | binds
B6 | binds
B7 | binds
B8 | binds
